Results as given in the supplement of paper PMC10849652.
This is one part of the list.

Protein sequences, listed by entry. Tags and fused reporters are not part of them. Lines headed by an entry give the natural chain unless they say otherwise; changes in a name come on top.
UniProt P61244, whole entry, looked up: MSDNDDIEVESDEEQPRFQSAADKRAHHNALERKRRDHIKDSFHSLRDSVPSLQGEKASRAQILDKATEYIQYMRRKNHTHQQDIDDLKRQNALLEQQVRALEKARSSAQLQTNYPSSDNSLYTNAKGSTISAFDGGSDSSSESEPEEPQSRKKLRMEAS
UniProt Q96PE7: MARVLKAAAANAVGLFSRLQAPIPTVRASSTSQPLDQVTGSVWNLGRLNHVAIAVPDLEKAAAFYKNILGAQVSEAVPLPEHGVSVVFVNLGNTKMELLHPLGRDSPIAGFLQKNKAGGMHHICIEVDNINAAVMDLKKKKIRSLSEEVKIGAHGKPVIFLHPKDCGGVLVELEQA
UniProt Q7Z434: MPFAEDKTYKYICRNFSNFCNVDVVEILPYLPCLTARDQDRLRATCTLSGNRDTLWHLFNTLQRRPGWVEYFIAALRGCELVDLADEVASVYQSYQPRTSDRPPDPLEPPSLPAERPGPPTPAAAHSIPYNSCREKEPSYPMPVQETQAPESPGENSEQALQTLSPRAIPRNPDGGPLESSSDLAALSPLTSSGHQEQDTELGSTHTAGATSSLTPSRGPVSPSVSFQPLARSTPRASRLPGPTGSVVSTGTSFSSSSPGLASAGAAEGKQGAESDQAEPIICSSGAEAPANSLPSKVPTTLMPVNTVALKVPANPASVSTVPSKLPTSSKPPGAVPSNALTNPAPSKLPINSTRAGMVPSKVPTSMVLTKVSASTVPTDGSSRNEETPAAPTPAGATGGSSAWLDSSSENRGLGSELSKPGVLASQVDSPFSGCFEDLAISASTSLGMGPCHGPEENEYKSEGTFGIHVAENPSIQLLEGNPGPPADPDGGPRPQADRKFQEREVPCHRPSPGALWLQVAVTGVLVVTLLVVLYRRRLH
UniProt Q14696: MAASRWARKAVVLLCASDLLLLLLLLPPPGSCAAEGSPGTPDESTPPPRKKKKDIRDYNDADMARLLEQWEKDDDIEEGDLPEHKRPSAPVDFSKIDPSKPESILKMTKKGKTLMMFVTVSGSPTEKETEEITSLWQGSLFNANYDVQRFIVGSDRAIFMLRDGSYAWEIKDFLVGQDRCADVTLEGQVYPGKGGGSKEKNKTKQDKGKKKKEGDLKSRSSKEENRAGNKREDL
UniProt Q15528: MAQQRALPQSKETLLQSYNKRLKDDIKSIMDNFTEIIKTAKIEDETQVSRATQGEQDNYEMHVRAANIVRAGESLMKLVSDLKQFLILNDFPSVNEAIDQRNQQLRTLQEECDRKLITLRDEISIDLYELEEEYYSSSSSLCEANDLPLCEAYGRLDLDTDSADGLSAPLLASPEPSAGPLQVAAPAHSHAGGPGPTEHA
UniProt Q14680: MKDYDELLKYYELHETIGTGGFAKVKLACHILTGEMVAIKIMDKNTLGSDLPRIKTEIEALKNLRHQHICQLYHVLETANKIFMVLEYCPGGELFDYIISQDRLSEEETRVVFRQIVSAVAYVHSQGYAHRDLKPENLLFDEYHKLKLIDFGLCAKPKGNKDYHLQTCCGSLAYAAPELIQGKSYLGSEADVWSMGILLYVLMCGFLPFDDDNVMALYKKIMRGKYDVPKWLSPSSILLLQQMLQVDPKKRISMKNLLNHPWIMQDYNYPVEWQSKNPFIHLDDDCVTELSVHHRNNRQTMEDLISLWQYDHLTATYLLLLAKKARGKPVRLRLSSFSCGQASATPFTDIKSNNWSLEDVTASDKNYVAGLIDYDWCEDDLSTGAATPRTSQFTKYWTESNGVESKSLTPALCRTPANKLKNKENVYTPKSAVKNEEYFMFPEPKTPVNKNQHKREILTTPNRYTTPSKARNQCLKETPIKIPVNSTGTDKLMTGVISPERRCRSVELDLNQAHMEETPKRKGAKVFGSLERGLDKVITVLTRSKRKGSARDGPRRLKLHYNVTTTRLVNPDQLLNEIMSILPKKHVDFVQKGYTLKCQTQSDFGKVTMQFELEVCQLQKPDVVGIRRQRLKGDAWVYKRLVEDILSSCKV
UniProt O14770: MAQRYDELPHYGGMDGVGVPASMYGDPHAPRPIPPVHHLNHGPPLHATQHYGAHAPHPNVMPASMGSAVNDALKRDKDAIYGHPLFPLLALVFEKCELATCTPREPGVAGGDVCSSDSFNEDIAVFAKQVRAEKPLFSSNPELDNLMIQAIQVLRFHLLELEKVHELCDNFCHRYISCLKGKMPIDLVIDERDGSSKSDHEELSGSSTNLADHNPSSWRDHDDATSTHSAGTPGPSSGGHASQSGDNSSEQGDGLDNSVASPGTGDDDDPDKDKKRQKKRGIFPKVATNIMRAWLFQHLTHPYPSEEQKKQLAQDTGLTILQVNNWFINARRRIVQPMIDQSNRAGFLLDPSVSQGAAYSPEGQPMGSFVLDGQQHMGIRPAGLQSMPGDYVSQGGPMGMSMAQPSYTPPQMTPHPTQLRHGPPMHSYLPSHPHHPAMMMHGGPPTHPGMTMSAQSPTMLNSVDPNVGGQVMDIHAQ
UniProt Q14728: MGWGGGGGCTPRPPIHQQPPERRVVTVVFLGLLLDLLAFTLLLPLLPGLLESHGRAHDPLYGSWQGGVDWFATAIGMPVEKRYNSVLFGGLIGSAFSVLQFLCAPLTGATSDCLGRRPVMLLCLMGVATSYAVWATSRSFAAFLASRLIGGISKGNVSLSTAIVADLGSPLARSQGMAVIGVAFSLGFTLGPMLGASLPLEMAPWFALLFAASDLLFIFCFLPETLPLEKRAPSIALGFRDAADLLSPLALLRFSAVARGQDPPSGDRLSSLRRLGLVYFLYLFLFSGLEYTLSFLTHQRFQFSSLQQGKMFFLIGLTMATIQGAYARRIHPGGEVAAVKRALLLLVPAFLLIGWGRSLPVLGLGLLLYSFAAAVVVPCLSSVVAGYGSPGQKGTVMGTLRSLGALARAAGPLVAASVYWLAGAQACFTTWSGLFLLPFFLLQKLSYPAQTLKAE
UniProt Q14676: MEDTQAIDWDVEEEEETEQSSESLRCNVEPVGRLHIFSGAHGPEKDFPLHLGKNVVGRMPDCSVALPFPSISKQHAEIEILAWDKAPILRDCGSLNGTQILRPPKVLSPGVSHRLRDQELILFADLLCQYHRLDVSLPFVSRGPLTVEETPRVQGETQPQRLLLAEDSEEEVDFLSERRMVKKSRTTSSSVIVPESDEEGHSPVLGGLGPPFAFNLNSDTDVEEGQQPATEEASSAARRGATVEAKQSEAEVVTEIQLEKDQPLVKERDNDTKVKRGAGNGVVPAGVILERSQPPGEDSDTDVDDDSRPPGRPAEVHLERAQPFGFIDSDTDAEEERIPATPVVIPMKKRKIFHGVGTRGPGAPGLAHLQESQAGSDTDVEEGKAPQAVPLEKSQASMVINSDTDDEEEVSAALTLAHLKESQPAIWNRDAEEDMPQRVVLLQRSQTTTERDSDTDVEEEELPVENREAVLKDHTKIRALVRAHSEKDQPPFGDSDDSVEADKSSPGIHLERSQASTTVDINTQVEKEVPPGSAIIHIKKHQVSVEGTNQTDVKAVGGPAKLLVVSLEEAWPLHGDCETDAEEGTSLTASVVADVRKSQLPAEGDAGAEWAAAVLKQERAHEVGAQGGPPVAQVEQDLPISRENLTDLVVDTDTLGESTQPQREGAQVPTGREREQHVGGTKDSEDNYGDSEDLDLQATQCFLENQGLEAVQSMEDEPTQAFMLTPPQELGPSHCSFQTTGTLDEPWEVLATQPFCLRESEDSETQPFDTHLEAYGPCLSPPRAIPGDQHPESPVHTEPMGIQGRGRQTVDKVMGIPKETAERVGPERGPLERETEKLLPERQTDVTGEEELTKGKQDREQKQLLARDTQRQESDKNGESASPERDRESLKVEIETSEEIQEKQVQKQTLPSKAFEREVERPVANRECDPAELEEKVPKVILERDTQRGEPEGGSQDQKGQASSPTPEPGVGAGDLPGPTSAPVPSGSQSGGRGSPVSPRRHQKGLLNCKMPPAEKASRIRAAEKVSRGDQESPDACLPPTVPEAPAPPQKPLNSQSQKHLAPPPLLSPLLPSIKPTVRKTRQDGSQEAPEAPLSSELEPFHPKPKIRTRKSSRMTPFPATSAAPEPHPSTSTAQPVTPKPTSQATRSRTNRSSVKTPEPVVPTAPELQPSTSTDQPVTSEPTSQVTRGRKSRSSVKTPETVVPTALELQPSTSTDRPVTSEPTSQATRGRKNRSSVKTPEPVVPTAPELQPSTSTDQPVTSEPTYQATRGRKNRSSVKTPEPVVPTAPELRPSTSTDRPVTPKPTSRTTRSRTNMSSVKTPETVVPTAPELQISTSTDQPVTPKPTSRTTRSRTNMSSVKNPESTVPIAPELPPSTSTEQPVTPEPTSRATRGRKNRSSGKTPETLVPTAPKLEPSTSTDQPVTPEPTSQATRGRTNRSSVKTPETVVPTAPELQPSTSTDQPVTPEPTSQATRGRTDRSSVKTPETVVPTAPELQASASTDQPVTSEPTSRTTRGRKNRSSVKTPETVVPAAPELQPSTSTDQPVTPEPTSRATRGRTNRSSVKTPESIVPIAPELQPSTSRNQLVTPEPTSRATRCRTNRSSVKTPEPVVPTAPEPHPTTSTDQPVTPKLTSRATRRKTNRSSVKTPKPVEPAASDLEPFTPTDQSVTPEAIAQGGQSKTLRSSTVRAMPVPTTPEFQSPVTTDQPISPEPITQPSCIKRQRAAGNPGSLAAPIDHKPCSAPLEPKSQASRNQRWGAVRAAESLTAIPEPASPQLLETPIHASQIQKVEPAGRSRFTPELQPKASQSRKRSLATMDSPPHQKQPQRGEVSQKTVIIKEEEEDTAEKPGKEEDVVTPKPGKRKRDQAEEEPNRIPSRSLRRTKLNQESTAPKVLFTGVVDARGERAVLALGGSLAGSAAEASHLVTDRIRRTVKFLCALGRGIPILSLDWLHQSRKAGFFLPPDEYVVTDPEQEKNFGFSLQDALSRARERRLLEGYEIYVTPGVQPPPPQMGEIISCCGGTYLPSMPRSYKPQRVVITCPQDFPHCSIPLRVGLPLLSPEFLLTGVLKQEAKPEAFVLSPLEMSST
UniProt Q02078: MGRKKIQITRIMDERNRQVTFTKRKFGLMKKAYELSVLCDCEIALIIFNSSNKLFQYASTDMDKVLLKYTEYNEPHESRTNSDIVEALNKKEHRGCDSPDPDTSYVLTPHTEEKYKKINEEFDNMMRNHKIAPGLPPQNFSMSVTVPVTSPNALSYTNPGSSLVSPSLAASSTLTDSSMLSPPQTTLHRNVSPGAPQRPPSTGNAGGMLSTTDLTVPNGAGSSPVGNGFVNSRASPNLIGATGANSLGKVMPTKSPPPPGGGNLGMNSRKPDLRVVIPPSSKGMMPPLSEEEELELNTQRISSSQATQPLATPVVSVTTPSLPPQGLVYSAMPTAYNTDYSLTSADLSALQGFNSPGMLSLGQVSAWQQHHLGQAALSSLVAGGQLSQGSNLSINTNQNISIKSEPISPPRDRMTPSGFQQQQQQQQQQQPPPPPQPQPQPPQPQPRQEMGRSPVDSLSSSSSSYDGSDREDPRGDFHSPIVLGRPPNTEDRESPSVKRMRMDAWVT
UniProt P33991: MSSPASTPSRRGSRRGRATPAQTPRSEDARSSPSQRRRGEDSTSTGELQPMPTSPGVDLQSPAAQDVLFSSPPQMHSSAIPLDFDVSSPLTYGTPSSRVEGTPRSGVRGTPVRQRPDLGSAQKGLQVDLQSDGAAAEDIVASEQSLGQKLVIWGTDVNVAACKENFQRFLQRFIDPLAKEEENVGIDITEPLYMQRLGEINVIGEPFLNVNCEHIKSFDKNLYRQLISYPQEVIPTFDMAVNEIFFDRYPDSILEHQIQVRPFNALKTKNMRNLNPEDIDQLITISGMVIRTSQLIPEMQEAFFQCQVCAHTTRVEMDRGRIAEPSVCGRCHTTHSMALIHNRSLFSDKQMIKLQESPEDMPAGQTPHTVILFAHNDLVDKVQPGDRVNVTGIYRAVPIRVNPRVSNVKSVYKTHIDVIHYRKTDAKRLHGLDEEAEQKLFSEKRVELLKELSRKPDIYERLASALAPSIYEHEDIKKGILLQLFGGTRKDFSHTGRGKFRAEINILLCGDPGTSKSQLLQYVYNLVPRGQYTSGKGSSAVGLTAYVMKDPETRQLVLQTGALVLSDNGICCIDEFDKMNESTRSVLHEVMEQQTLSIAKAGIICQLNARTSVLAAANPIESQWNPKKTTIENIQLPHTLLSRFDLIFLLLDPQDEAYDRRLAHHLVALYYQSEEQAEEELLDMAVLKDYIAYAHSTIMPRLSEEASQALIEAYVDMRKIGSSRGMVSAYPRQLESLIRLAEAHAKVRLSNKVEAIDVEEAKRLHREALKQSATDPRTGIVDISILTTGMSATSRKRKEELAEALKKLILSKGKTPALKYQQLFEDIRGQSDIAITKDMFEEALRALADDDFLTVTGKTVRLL
UniProt Q9H204: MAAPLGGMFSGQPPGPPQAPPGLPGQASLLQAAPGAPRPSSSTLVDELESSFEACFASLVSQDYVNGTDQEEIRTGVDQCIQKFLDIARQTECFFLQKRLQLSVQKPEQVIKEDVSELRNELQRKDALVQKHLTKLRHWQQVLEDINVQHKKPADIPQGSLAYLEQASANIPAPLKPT

Columns and labels:
Experiment in all cases: log2 fold change, soluble protein after heating vs DMSO (PISA); higher = thermal stabilisation; K562 lysate, 10 uM; active = over 0.2 and 3.5 SD of the protein, either way, in both replicates (recomputed)
alvocidib = compound: CN1CC[C@H](c2c(O)cc(O)c3c(=O)cc(-c4ccccc4Cl)oc23)[C@H](O)C1 [alvocidib]
Outline: (§1)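 To prepare the extract, K562 pellets were dounce-homogenised in PBS pH 7.4 with 1 mM MgCl2, giving crude material at 1 mg/mL protein. This was treated with 10 μM compound for 30 min, then heated in aliquots for 3 min over 48°C-58°C before pooling and addition of NP-40 to 0.5% at 4°C. Centrifugation at 21,000xg for 90 min left soluble protein in the supernatant, which TMTpro 16plex LC-MS/MS quantified with equalised channel sums. Results are log-two fold changes in thermal stability compared with solvent controls, from duplicates.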

Tubastatin A = compound: CN1CCc2c(c3ccccc3n2Cc2ccc(C(=O)NO)cc2)C1 [Tubastatin A]
Outline: as §1

[1] = compound: CNC(=O)C1=CC=CC=C1NC2=NC(=NC=C2Cl)NC3=C(C=C(C=C3)N4CCOCC4)OC
Outline: as §1

defactinib = compound: CNC(=O)c1ccc(Nc2ncc(C(F)(F)F)c(NCc3nccnc3N(C)S(C)(=O)=O)n2)cc1 [defactinib]
Outline: as §1

[2] = compound: CNc1nc(-c2ccc3c(N)n[nH]c3c2)cc(N2C[C@@H](C(=O)NC3CCCCC3)CC[C@H]2C)n1
Outline: as §1

encorafenib = compound: COC(=O)N[C@@H](C)CNc1nccc(-c2cn(C(C)C)nc2-c2cc(Cl)cc(NS(C)(=O)=O)c2F)n1 [encorafenib]
Outline: as §1

[3] = compound: COC(=O)[C@H](CCSC)NC(=O)C1=C(C=C(C=C1)NC[C@H](CS)N)C2=CC=CC=C2
Outline: as §1

alisertib = compound: COc1cc(Nc2ncc3c(n2)-c2ccc(Cl)cc2C(c2c(F)cccc2OC)=NC3)ccc1C(=O)O [alisertib]
Outline: as §1

[4] = compound: COc1cc2nc(-c3cc(F)ccc3O)nc(N[C@@H]3CNC[C@H]3C(C)(C)O)c2cc1OC
Outline: as §1

gefitinib = compound: COc1cc2ncnc(Nc3ccc(F)c(Cl)c3)c2cc1OCCCN1CCOCC1 [gefitinib]
Outline: as §1

Measured: log2 fold change

METTL16 (UniProt Q86W50)
inactive: alvocidib 0.047 | Tubastatin A 0.021 | [1] 0.061 | defactinib 0.001 | [2] 0.037 | encorafenib 0.028 | [3] -0.018 | alisertib -0.013 | [4] 0.026 | gefitinib -0.009

MAX (UniProt P61244)
inactive: alvocidib -0.021 | Tubastatin A 0.072 | [1] -0.029 | defactinib -0.021 | [2] 0.017 | encorafenib 0.009 | [3] 0.014 | alisertib 0.044 | [4] 0.023 | gefitinib 0.043

ME1 (UniProt P48163)
inactive: alvocidib -0.002 | Tubastatin A 0.019 | [1] 0.015 | defactinib 0.037 | [2] -0.016 | encorafenib 0.014 | [3] -0.049 | alisertib -0.015 | [4] -0.008 | gefitinib 0.061

METTL14 (UniProt Q9HCE5)
inactive: alvocidib 0.022 | Tubastatin A 0.009 | [1] 0.058 | defactinib -0.004 | [2] 0.023 | encorafenib 0.026 | [3] -0.05 | alisertib -0.021 | [4] 0.005 | gefitinib -0.002

MCEE (UniProt Q96PE7)
inactive: alvocidib 0.048 | Tubastatin A -0.014 | [1] 0.055 | defactinib 0.018 | [2] 0.046 | encorafenib 0.047 | [3] -0.013 | alisertib 0.051 | [4] -0.014 | gefitinib -0.066

MAVS (UniProt Q7Z434)
inactive: alvocidib -0.001 | Tubastatin A -0.007 | [1] 0.031 | defactinib -0.001 | [2] 0.073 | encorafenib 0.02 | [3] -0.208 | alisertib 0.008 | [4] -0.034 | gefitinib -0.03

MESD (UniProt Q14696)
inactive: alvocidib 0.004 | Tubastatin A 0 | [1] 0.018 | defactinib 0.019 | [2] -0.076 | encorafenib 0.032 | [3] -0.03 | alisertib -0.008 | [4] 0.019 | gefitinib 0.018

MBIP (UniProt Q9NS73)
inactive: alvocidib -0.02 | Tubastatin A -0.034 | [1] -0.062 | defactinib -0.048 | [2] -0.042 | encorafenib 0.006 | [3] 0.13 | alisertib 0.155 | [4] -0.065 | gefitinib -0.1

MED17 (UniProt Q9NVC6)
inactive: alvocidib -0.001 | Tubastatin A -0.093 | [1] 0.025 | defactinib -0.035 | [2] -0.019 | encorafenib 0.03 | [3] -0.017 | alisertib -0.012 | [4] 0.023 | gefitinib -0.015

MED22 isoform 2 (UniProt Q15528)
inactive: alvocidib 0.051 | Tubastatin A 0.008 | [1] 0.026 | defactinib 0.042 | [2] 0.017 | encorafenib 0.115 | [3] -0.079 | alisertib 0.002 | [4] -0.021 | gefitinib -0.047

MELK (UniProt Q14680)
inactive: alvocidib -0.084 | Tubastatin A -0.053 | [1] -0.306 | defactinib -0.082 | [2] -0.013 | encorafenib -0.001 | [3] 0.146 | alisertib -0.032 | [4] -0.07 | gefitinib 0.044

MCMBP (UniProt Q9BTE3)
inactive: alvocidib 0.035 | Tubastatin A -0.078 | [1] 0.029 | defactinib 0.041 | [2] -0.003 | encorafenib -0.001 | [3] 0.074 | alisertib 0.005 | [4] 0 | gefitinib 0.011

MEIS2 (UniProt O14770)
inactive: alvocidib -0.062 | Tubastatin A -0.065 | [1] 0.027 | defactinib 0.056 | [2] 0.053 | encorafenib -0.055 | [3] 0.154 | alisertib 0.001 | [4] -0.006 | gefitinib -0.036

MFN1 (UniProt Q8IWA4)
inactive: alvocidib 0.022 | Tubastatin A -0.028 | [1] 0.02 | defactinib -0.003 | [2] 0.029 | encorafenib 0 | [3] -0.298 | alisertib -0.202 | [4] -0.002 | gefitinib -0.308

MBNL1 (UniProt C9JP00)
inactive: alvocidib 0.018 | Tubastatin A 0.051 | [1] -0.063 | defactinib -0.039 | [2] 0.126 | encorafenib 0.012 | [3] -0.135 | alisertib 0.002 | [4] 0.052 | gefitinib 0.028

MCRIP2 (UniProt Q9BUT9)
inactive: alvocidib 0.014 | Tubastatin A -0.001 | [1] 0.032 | defactinib 0.032 | [2] 0.061 | encorafenib -0.04 | [3] 0.034 | alisertib -0.034 | [4] 0.044 | gefitinib -0.049

MFGE8 (UniProt Q08431)
inactive: alvocidib -0.084 | Tubastatin A 0.052 | [1] 0.033 | defactinib -0.087 | [2] 0.028 | encorafenib 0.041 | [3] -0.085 | alisertib 0.016 | [4] 0.116 | gefitinib -0.102

MFSD10 (UniProt Q14728)
inactive: alvocidib -0.076 | Tubastatin A 0.122 | [1] 0.004 | defactinib 0 | [2] 0.048 | encorafenib 0.124 | [3] -0.006 | alisertib -0.033 | [4] 0.022 | gefitinib 0.054

Reprinted at random: 2 records from the list
MCRIP2 (UniProt Q9BUT9)
inactive: alvocidib 0.014 | Tubastatin A -0.001 | [1] 0.032 | defactinib 0.032 | [2] 0.061 | encorafenib -0.04 | [3] 0.034 | alisertib -0.034 | [4] 0.044 | gefitinib -0.049

MBNL1 (UniProt C9JP00)
inactive: alvocidib 0.018 | Tubastatin A 0.051 | [1] -0.063 | defactinib -0.039 | [2] 0.126 | encorafenib 0.012 | [3] -0.135 | alisertib 0.002 | [4] 0.052 | gefitinib 0.028

Remaining list, next part

MDK (UniProt P21741)
inactive: alvocidib 0.157 | Tubastatin A -0.026 | [1] 0.045 | [2] -0.034 | encorafenib -0.057 | [3] 0.04 | alisertib -0.033 | [4] -0.016 | gefitinib 0.031

MCM7 (UniProt P33993)
inactive: alvocidib 0.021 | Tubastatin A -0.048 | [1] 0.021 | defactinib -0.011 | [2] -0.008 | encorafenib -0.017 | [3] 0.141 | alisertib 0.003 | [4] -0.011 | gefitinib -0.026

MCOLN1 (UniProt Q9GZU1)
inactive: alvocidib 0.016 | Tubastatin A 0.107 | [1] 0.068 | defactinib -0.004 | [2] -0.026 | alisertib 0.07 | [4] -0.099 | gefitinib -0.301

MDC1 (UniProt Q14676)
inactive: alvocidib 0 | Tubastatin A 0.047 | [1] -0.007 | defactinib -0.011 | [2] 0.009 | encorafenib 0.011 | [3] 0.051 | alisertib 0.002 | [4] 0.027 | gefitinib 0.008

MEF2A isoform 2 (UniProt Q02078)
inactive: alvocidib -0.033 | Tubastatin A 0.002 | [1] -0.009 | defactinib -0.047 | alisertib -0.002 | [4] 0 | gefitinib 0.068

MCM4 (UniProt P33991)
inactive: alvocidib 0.007 | Tubastatin A -0.032 | [1] -0.054 | defactinib -0.013 | [2] -0.049 | encorafenib -0.018 | [3] 0.072 | alisertib -0.01 | [4] 0.008 | gefitinib -0.03

MED13L (UniProt Q71F56)
inactive: alvocidib 0.042 | Tubastatin A -0.069 | [1] 0.016 | defactinib -0.011 | [2] -0.004 | encorafenib 0.02 | [3] 0.021 | alisertib -0.084 | [4] -0.005 | gefitinib 0.01

MED28 (UniProt Q9H204)
inactive: alvocidib -0.292 | Tubastatin A 0.05 | [1] 0.14 | [2] 0.081 | alisertib 0.011 | [4] -0.024 | gefitinib -0.217

MFAP1 (UniProt P55081)
inactive: alvocidib -0.036 | Tubastatin A -0.041 | [1] 0.03 | defactinib -0.031 | [2] -0.009 | encorafenib 0.034 | [3] -0.022 | alisertib 0.026 | [4] -0.009 | gefitinib 0.067
